Test results reported in PMC5487034.
Results are given in words; binding and its absence hold for the method and conditions named. In cells and extracts the contact can be indirect. Some binding calls cover weakened binding; strength is not graded here.

Biological target: T1, Bcl-xL (rat (endogenous in spinal cord)), P53563
T1 chain: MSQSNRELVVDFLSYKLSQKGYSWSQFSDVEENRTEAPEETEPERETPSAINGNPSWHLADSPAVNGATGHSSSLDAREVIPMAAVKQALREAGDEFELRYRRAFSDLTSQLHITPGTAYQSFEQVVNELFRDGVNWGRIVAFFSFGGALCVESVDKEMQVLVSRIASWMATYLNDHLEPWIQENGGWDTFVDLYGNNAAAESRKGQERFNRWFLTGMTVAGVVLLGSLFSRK
Assay: co-IP; about 100 ug of mitochondrial fraction of rat spinal cord (lumbar vertebra), precleared with protein A+G sepharose; IP with 2 ug polyclonal rabbit anti-Bcl-xL antibody and protein A+G sepharose for 5 h at 4°C; Western blot with anti-Bad; rats exposed to 0, 100, 200 and 400 mg/kg 2,5-HD for 5 weeks
Conditions: remark: other sources report otherwise

B1: Bcl-2-associated death promoter (Bad), O35147 1-205 (protein)
chain: MGTPKQPSLAPAHALGLRKSDPGIRSLGSDAGGRRWRPAAQSMFQIPEFEPSEQEDASTTDRGLGPSLTEDQPGPYLAPGLLGSIVQQQPGQAANNSHHGGAGTMETRSRHSSYPAGTEEDEGMEEELSPFRGRSRSAPPNLWAAQRYGRELRRMSDEFEGSFKGLPRPKSAGTATQMRQSASWTRIIQSWWDRNLGKGGSTPSQ
For B1, the binding was “binds”.
